Test results: the supplement of paper PMC10849652
The other results are listed elsewhere or left out. Residues, ends and D or L forms follow the SMILES beside them. *: point of attachment. Cbz = O=C(OCc1ccccc1)*

Sequences of proteins named here, by UniProt entry; tags and fusion partners are left off. A change or cut given only in a name is not applied to a line headed by its entry.
WASHC2C, A0A096LPC5, UniProt A0A096LPC5, whole entry, looked up: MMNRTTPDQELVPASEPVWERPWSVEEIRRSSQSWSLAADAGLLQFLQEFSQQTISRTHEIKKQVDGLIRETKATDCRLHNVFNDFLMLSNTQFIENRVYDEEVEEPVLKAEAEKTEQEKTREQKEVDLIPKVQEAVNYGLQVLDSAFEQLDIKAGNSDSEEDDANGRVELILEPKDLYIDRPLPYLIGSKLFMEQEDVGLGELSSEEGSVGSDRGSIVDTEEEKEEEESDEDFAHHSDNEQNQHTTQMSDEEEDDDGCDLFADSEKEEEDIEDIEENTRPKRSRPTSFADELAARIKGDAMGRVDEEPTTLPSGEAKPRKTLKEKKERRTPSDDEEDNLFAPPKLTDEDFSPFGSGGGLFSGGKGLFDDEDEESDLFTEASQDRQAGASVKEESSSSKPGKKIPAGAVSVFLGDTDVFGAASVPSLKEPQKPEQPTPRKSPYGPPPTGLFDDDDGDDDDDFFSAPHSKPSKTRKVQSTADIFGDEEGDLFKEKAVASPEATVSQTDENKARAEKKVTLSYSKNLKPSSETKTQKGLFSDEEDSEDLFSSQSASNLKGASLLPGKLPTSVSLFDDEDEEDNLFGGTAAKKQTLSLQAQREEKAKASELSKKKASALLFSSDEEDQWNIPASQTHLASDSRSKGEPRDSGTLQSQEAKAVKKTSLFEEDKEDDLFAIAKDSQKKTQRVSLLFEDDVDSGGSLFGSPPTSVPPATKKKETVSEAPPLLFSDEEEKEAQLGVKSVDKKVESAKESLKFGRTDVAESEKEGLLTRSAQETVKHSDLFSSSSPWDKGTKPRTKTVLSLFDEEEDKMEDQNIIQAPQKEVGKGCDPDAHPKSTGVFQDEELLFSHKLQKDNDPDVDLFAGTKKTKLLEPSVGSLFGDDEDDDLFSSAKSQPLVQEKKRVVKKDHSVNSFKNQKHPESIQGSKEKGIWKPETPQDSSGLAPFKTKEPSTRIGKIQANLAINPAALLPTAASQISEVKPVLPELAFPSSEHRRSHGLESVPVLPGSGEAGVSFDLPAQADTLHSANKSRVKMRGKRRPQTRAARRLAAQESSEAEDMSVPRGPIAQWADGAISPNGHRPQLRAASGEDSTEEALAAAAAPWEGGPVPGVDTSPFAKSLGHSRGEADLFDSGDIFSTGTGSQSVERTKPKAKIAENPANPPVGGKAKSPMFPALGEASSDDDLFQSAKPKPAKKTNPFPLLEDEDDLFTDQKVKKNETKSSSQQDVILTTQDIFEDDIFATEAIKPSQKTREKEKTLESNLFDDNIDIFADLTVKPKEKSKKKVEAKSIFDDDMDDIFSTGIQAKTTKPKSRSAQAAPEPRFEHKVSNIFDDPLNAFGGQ
UniProt Q5VIR6: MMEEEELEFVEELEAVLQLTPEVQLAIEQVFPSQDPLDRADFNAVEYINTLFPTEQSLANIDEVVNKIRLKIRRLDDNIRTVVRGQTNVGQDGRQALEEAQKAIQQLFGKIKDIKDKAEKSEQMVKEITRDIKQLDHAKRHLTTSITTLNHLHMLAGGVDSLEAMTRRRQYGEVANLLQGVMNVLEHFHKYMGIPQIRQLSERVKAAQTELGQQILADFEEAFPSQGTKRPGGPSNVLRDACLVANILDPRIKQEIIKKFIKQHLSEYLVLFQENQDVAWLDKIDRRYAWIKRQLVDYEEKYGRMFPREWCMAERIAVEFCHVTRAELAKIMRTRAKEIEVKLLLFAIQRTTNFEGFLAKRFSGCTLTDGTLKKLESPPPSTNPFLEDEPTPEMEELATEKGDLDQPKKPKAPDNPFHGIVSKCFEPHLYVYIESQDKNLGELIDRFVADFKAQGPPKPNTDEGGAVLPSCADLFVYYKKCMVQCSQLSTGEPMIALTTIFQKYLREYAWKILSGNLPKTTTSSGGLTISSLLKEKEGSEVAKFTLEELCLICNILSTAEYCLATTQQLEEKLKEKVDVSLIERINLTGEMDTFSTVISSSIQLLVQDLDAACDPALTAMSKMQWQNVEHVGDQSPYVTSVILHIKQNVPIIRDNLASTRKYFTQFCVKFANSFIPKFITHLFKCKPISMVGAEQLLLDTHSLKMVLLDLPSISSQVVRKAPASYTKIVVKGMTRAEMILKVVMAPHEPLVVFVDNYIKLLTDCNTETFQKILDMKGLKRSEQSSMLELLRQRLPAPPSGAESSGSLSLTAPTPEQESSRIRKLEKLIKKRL
UniProt Q96JG6: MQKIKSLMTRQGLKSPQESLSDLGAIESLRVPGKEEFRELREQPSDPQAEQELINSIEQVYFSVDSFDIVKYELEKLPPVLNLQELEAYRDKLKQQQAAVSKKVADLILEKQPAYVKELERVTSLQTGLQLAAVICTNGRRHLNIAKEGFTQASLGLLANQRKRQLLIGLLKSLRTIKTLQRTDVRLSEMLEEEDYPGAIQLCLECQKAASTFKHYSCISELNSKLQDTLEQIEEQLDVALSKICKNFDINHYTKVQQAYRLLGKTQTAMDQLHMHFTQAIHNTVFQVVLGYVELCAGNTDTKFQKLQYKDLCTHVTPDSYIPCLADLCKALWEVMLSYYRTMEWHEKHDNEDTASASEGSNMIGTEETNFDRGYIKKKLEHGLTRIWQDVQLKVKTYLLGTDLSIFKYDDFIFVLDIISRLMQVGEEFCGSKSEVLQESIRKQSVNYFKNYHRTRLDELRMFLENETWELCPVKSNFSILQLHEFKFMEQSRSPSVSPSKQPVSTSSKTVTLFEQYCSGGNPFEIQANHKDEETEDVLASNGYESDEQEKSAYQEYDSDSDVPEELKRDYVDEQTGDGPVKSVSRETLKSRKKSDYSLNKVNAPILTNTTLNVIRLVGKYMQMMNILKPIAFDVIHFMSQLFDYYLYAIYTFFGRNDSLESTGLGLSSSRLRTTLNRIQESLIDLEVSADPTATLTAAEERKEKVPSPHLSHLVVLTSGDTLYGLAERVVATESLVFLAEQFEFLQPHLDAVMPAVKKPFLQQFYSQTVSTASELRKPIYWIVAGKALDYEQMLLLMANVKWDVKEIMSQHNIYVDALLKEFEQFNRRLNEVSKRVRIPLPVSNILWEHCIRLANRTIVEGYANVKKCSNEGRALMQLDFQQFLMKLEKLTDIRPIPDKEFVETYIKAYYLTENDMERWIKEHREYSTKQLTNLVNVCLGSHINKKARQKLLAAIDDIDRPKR
UniProt Q6VEQ5: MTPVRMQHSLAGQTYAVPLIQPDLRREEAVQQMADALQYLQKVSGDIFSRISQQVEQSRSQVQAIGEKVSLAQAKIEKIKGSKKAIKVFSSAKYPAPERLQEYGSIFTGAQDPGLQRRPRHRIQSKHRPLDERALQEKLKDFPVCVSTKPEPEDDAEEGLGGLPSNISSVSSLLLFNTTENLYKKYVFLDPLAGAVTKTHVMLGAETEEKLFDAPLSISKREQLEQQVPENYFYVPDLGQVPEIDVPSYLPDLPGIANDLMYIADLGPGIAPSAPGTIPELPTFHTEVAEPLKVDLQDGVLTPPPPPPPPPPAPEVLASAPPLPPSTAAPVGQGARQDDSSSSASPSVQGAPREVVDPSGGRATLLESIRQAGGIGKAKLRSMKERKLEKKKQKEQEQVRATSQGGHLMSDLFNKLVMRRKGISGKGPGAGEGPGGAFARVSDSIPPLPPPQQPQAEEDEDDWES
UniProt Q502W6: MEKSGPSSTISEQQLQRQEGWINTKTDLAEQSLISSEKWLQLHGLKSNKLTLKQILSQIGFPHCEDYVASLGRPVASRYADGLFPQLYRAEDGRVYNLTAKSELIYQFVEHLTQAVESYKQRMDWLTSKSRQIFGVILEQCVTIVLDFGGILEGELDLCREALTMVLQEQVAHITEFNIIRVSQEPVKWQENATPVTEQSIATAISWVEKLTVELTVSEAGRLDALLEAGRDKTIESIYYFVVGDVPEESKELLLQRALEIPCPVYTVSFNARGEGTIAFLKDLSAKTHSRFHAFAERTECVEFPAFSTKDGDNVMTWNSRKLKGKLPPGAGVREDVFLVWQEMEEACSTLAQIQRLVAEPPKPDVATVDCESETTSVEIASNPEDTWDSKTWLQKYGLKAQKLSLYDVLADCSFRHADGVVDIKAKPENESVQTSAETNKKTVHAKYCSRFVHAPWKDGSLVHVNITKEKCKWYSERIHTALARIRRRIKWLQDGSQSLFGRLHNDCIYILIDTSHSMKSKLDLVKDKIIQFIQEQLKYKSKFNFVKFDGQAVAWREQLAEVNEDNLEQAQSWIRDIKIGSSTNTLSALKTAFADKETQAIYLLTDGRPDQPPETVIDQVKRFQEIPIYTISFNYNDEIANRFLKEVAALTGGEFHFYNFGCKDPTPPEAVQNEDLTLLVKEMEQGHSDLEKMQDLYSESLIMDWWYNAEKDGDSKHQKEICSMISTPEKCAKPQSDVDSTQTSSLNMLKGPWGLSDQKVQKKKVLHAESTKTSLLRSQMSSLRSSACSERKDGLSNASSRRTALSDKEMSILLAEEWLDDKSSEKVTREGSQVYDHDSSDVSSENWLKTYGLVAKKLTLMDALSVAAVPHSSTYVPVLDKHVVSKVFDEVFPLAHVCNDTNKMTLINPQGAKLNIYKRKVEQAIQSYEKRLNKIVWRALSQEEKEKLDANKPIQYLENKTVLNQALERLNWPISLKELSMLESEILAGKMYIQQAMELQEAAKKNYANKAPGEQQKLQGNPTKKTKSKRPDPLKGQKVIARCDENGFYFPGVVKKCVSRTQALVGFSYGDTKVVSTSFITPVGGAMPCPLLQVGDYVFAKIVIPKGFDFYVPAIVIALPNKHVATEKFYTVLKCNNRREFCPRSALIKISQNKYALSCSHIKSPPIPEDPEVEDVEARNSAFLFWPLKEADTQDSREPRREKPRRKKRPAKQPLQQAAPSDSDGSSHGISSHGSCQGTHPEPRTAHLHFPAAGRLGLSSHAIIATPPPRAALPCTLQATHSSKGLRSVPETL
UniProt O00258: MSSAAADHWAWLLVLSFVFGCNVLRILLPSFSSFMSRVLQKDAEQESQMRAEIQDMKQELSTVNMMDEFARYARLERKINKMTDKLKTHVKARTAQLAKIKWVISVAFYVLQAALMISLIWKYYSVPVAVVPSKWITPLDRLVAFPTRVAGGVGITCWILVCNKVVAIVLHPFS
UniProt O15213: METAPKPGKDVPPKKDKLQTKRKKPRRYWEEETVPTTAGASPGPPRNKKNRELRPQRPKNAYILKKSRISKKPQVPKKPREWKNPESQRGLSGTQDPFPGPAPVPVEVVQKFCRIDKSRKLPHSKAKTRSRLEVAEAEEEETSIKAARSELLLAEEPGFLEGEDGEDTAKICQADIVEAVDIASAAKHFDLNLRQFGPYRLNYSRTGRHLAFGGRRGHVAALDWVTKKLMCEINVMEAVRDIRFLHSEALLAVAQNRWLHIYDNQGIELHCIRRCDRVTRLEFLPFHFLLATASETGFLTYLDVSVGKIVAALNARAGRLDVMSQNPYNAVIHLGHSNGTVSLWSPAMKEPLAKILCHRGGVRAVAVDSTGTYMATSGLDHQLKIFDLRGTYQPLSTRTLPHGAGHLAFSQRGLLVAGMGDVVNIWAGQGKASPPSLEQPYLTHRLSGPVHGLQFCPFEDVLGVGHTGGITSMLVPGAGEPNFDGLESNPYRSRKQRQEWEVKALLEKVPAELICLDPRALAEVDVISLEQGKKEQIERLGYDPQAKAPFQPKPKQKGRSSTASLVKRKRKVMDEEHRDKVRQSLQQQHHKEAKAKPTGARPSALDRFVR
UniProt Q9Y2I8: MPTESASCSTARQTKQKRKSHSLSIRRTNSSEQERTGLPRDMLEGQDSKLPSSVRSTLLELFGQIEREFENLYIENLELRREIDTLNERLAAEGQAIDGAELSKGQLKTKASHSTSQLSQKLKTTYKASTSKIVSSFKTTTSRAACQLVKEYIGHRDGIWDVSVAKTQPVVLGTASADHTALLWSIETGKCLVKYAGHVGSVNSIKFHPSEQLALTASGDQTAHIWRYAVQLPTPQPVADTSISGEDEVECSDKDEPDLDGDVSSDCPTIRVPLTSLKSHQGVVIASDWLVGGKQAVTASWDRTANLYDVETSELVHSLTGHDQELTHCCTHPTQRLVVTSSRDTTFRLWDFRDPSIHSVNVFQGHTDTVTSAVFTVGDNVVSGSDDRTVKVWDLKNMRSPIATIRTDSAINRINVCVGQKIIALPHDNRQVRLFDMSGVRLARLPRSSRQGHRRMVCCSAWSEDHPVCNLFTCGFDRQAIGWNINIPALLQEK
UniProt O75554: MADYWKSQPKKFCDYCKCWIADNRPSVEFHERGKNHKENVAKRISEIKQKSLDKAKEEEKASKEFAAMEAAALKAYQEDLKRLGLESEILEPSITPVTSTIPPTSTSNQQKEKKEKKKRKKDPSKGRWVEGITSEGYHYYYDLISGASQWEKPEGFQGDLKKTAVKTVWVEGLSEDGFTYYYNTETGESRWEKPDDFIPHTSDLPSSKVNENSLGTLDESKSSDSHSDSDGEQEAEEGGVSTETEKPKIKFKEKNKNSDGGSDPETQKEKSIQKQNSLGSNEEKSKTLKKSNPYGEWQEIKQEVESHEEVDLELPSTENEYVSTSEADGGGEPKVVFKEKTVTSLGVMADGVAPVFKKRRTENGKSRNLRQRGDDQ

Tests used:
Experiment in all cases: log2 fold change, soluble protein after heating vs DMSO (PISA); higher = thermal stabilisation; K562 cells, 10 uM, 30 min; active = over 0.2 and 3.5 SD of the protein, either way, in both replicates (recomputed)
erlotinib = compound: C#Cc1cccc(Nc2ncnc3cc(OCCOC)c(OCCOC)cc23)c1 [erlotinib]
How it was run: (§1)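 Thermal stability values are relative to control samples and come from duplicates. They are expressed as log2 fold changes. For measurement, K562 cells (2×10^6 cells/mL) received 10 μM compound for 30 min, and aliquots were heated for 3 min over 48°C-58°C, pooled, and extracted at 4°C in PBS with 0.5% NP-40. Soluble protein, the supernatant after 21,000xg for 90 min, was quantified by TMTpro 16plex LC-MS/MS with equalised channel sums.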

[1] = compound: C/C(=N\NC(=O)C1=CC(=CC=C1)S(=O)(=O)N2CCOCC2)/C3=C(C=CC(=C3)Cl)O
How it was run: as §1

[2] = compound: C1=CC(=C(C=C1Cl)C2=NC3=NC=CN=C3C(=N2)NC4=CC=NC=C4)F
How it was run: as §1

[3] = compound: C1=CC(=CC=C1C2=NC3=C(N2)C=C(C=C3)C(=O)N)OC4=CC=C(C=C4)Cl
How it was run: as §1

[4] = compound: C1=CC2=C(C=CC(=C2)/C=C\3/C(=O)NC(=NCC4=CC=CS4)S3)N=C1
How it was run: as §1

[5] = compound: C1=CC2=NC=CN=C2C=C1/C=C/3\C(=O)NC(=O)S3
How it was run: as §1

[6] = compound: C1=CC=C(C=C1)C2=NC(=C(N2)C3=CC=NC=C3)C4=CC(=C(C=C4)Cl)O
How it was run: as §1

[7] = compound: C1=CC=C2C(=C1)C3=NNC4=CC=CC(=C43)C2=O
How it was run: as §1

[8] = compound: C1CCN(C1)C(=O)NC2=CC=CC(=C2)NC3=NC=C(C(=N3)NCCC4=CN=CN4)Br
How it was run: as §1

[9] = compound: C1CN(CCC1(CC2=CC=C(C=C2)Cl)N)C3=NC=NC4=C3C=CN4
How it was run: as §1

IRAK-1-4 Inhibitor I = compound: C1COCCN1CCN2C3=CC=CC=C3N=C2NC(=O)C4=CC(=CC=C4)[N+](=O)[O-] [IRAK-1-4 Inhibitor I]
How it was run: as §1

ibrutinib = compound: C=CC(=O)N1CCC[C@@H](n2nc(-c3ccc(Oc4ccccc4)cc3)c3c(N)ncnc32)C1 [ibrutinib]
How it was run: as §1

[10] = compound: CC(=O)c1cnc2ccc(-c3cc(Cl)c(O)c(Cl)c3)nc2c1N[C@H]1CC[C@H](CN(C)C)CC1
How it was run: as §1

ralimetinib = compound: CC(C)(C)Cn1c(N)nc2ccc(-c3[nH]c(C(C)(C)C)nc3-c3ccc(F)cc3)nc21 [ralimetinib]
How it was run: as §1

[11] = compound: CC(C)(O)CC(=O)NCCn1ccc2ncnc(Nc3ccc(Oc4cccc(C(F)(F)F)c4)c(Cl)c3)c21
How it was run: as §1

[12] = compound: CC(C)C1=C2N=C(C=C(N2N=C1)NCC3=CC=CC=C3)NCCCCCCN
How it was run: as §1

[13] = compound: CC(C)C[C@@H](C=O)NC(=O)[C@H](CC(C)C)NC(=O)[C@H](CC(C)C)NC(=O)OCc1ccccc1
How it was run: as §1

pinometostat = compound: CC(C)N(C[C@H]1O[C@@H](n2cnc3c(N)ncnc32)[C@H](O)[C@@H]1O)[C@H]1C[C@@H](CCc2nc3cc(C(C)(C)C)ccc3[nH]2)C1 [pinometostat]
How it was run: as §1

[14] = compound: CC1=C(C(CC(=O)N1)C2=CC=C(C=C2)C(F)(F)F)C(=O)NC3=C(C=C4C(=C3)C=NN4)F
How it was run: as §1

[15] = compound: CC1=C(C2=C(C=C1)C(=O)C3=CC=CC=C3N2CCCN)C
How it was run: as §1

Measured: log2 fold change

WDR73 (UniProt Q6P4I2)
inactive: erlotinib 0.027 | [1] 0.068 | [2] 0.069 | [3] 0.017 | [4] 0.05 | [5] -0.004 | [6] -0.011 | [7] -0.011 | [8] 0.013 | [9] 0.039 | IRAK-1-4 Inhibitor I 0 | ibrutinib 0.006 | [10] -0.026 | ralimetinib -0.001 | [11] 0 | [12] 0.024 | [13] -0.061 | pinometostat -0.004 | [14] 0.032 | [15] 0.028

WEE1 (UniProt P30291)
active: [10] -1.1
inactive: erlotinib 0.029 | [1] -0.06 | [2] -0.081 | [3] 0.047 | [4] -0.206 | [5] 0.249 | [6] -0.177 | [7] 0.037 | [8] -0.085 | [9] -0.239 | IRAK-1-4 Inhibitor I 0.025 | ibrutinib 0.013 | ralimetinib 0.037 | [11] -0.034 | [12] -0.019 | [13] 0.296 | pinometostat 0.066 | [15] 0.263

WASL (UniProt O00401)
inactive: erlotinib 0.094 | [1] 0.109 | [2] -0.082 | [3] 0.002 | [4] -0.005 | [5] -0.034 | [6] 0.072 | [7] 0 | [8] -0.042 | [9] -0.036 | IRAK-1-4 Inhibitor I 0.004 | ibrutinib 0.025 | [10] -0.136 | ralimetinib -0.031 | [11] -0.032 | [12] -0.085 | [13] -0.024 | pinometostat 0.035 | [14] -0.061 | [15] 0.02

VPS35L (UniProt Q7Z3J2)
inactive: erlotinib 0.011 | [1] -0.004 | [2] -0.072 | [3] 0.025 | [4] 0.044 | [5] 0.059 | [6] 0.014 | [7] 0.012 | [8] -0.047 | [9] 0.071 | IRAK-1-4 Inhibitor I -0.012 | ibrutinib -0.006 | [10] -0.028 | ralimetinib 0.05 | [11] -0.097 | [12] -0.046 | [13] 0.036 | pinometostat 0.043 | [15] 0.024

WASHC2C, A0A096LPC5
inactive: erlotinib 0.095 | [1] -0.224 | [2] -0.016 | [3] -0.006 | [4] 0.204 | [5] 0.113 | [6] 0.111 | [7] -0.071 | [8] -0.069 | [9] 0.08 | IRAK-1-4 Inhibitor I 0.01 | ibrutinib -0.005 | [10] -0.159 | ralimetinib -0.035 | [11] 0.085 | [12] -0.214 | [13] 0.057 | pinometostat 0.008 | [15] -0.125

VPS53 isoform 4 (UniProt Q5VIR6)
inactive: erlotinib 0.06 | [1] 0.094 | [2] 0.003 | [3] -0.04 | [4] 0.107 | [5] 0.048 | [6] -0.083 | [7] 0.022 | [8] -0.021 | [9] -0.004 | IRAK-1-4 Inhibitor I -0.035 | ibrutinib 0.011 | [10] -0.046 | ralimetinib -0.022 | [11] -0.101 | [12] -0.142 | [13] 0.095 | pinometostat 0.076 | [15] 0.036

VPS50 (UniProt Q96JG6)
inactive: erlotinib 0.008 | [1] 0.094 | [2] -0.003 | [3] -0.017 | [4] 0.088 | [5] 0.025 | [6] 0.023 | [7] -0.019 | [8] -0.022 | [9] -0.021 | IRAK-1-4 Inhibitor I -0.046 | ibrutinib -0.009 | [10] -0.003 | ralimetinib 0.12 | [11] -0.138 | [12] -0.099 | [13] 0.053 | pinometostat -0.014 | [15] 0.023

WASH2P (UniProt Q6VEQ5)
active: [12] -0.234
inactive: erlotinib 0.005 | [1] -0.02 | [2] -0.084 | [3] 0.003 | [4] 0.041 | [5] 0.038 | [6] 0.014 | [7] 0.011 | [8] 0.117 | [9] 0.013 | IRAK-1-4 Inhibitor I 0.001 | ibrutinib -0.049 | [10] 0.052 | ralimetinib 0.022 | [11] 0.048 | [13] 0.025 | pinometostat -0.016 | [15] 0.026

VTA1 (UniProt Q9NP79)
inactive: erlotinib -0.05 | [1] 0.124 | [2] 0.07 | [3] 0.018 | [4] -0.007 | [5] 0.025 | [6] -0.02 | [7] 0.029 | [8] 0.01 | [9] -0.024 | IRAK-1-4 Inhibitor I -0.02 | ibrutinib -0.001 | [10] -0.013 | ralimetinib -0.009 | [11] -0.074 | [12] -0.12 | [13] -0.007 | pinometostat -0.041 | [15] 0.068

VWA3B isoform 6 (UniProt Q502W6)
inactive: erlotinib 0.107 | [1] -0.036 | [2] 0.213 | [3] -0.057 | [4] 0.048 | [5] 0.111 | [6] -0.214 | [7] -0.049 | [8] 0.03 | [9] -0.03 | IRAK-1-4 Inhibitor I 0.043 | ibrutinib -0.069 | [10] 0.013 | ralimetinib -0.031 | [11] 0 | [12] -0.407 | [13] -0.256 | pinometostat 0.079 | [15] 0.089

WRB (UniProt O00258)
inactive: erlotinib -0.02 | [1] 0.012 | [2] 0.032 | [3] 0.019 | [4] -0.003 | [5] 0.069 | [6] 0.019 | [7] -0.042 | [8] 0.027 | [9] -0.011 | IRAK-1-4 Inhibitor I 0.006 | ibrutinib 0.014 | [10] -0.074 | ralimetinib 0.004 | [11] 0.015 | [12] 0.043 | [13] -0.043 | pinometostat -0.032 | [15] 0.011

WDR46 (UniProt O15213)
inactive: erlotinib -0.209 | [1] -0.231 | [3] 0.008 | [4] -0.154 | [5] 0.065 | [6] -0.055 | [7] 0.052 | [8] 0.057 | [9] -0.087 | IRAK-1-4 Inhibitor I -0.159 | ibrutinib 0.099 | [10] 0.15 | ralimetinib 0.175 | [11] 0.066 | [12] 0.192 | [13] 0.154 | pinometostat 0.242 | [15] -0.382
active: [2] -0.816

WDR37 isoform 2 (UniProt Q9Y2I8)
active: [10] -0.39
inactive: erlotinib 0.039 | [1] 0.006 | [2] -0.097 | [3] 0.012 | [4] -0.026 | [5] -0.204 | [6] 0.006 | [7] -0.144 | [8] 0.01 | [9] -0.088 | IRAK-1-4 Inhibitor I 0.144 | ibrutinib -0.06 | ralimetinib -0.063 | [11] -0.118 | [12] -0.011 | [13] 0.126 | pinometostat -0.029 | [15] 0.144

Reprinted at random: 2 entries already listed
WASHC2C, A0A096LPC5
inactive: erlotinib 0.095 | [1] -0.224 | [2] -0.016 | [3] -0.006 | [4] 0.204 | [5] 0.113 | [6] 0.111 | [7] -0.071 | [8] -0.069 | [9] 0.08 | IRAK-1-4 Inhibitor I 0.01 | ibrutinib -0.005 | [10] -0.159 | ralimetinib -0.035 | [11] 0.085 | [12] -0.214 | [13] 0.057 | pinometostat 0.008 | [15] -0.125

VPS53 isoform 4 (UniProt Q5VIR6)
inactive: erlotinib 0.06 | [1] 0.094 | [2] 0.003 | [3] -0.04 | [4] 0.107 | [5] 0.048 | [6] -0.083 | [7] 0.022 | [8] -0.021 | [9] -0.004 | IRAK-1-4 Inhibitor I -0.035 | ibrutinib 0.011 | [10] -0.046 | ralimetinib -0.022 | [11] -0.101 | [12] -0.142 | [13] 0.095 | pinometostat 0.076 | [15] 0.036

Carrying on.

WBP4 (UniProt O75554)
inactive: erlotinib 0 | [1] -0.07 | [2] 0.04 | [3] 0.009 | [4] -0.082 | [5] 0.031 | [6] -0.059 | [7] -0.055 | [8] 0.031 | [9] 0.036 | IRAK-1-4 Inhibitor I 0.082 | ibrutinib -0.001 | [10] 0.033 | ralimetinib -0.057 | [11] -0.001 | [12] 0.098 | [13] 0.041 | pinometostat -0.06 | [15] 0.02

VPS11 (UniProt Q9H270)
active: [12] -0.375
inactive: erlotinib -0.041 | [1] 0.099 | [2] 0.015 | [3] 0.005 | [4] 0.058 | [5] 0.068 | [6] 0.03 | [7] -0.011 | [8] 0.002 | [9] 0.027 | IRAK-1-4 Inhibitor I 0.115 | ibrutinib -0.038 | [10] -0.032 | ralimetinib 0.038 | [11] -0.069 | [13] 0.062 | pinometostat 0.011 | [15] 0.031

WASHC2A (UniProt Q641Q2)
active: [12] -0.266
inactive: erlotinib 0.008 | [1] -0.026 | [2] -0.025 | [3] 0.002 | [4] 0.004 | [5] 0.058 | [6] -0.072 | [7] -0.037 | [8] 0.029 | [9] -0.017 | IRAK-1-4 Inhibitor I -0.002 | ibrutinib -0.013 | [10] 0.054 | ralimetinib 0.013 | [11] 0.047 | [13] 0.025 | pinometostat 0.033 | [15] -0.044

WDR4 (UniProt P57081)
inactive: erlotinib 0.058 | [1] 0.106 | [2] 0.131 | [3] -0.012 | [4] -0.046 | [5] 0.223 | [6] 0.061 | [7] 0.011 | [8] 0.031 | [9] 0.053 | IRAK-1-4 Inhibitor I 0.024 | ibrutinib -0.052 | [10] 0.022 | ralimetinib -0.033 | [11] -0.003 | [12] -0.005 | [13] -0.072 | pinometostat -0.017 | [15] 0.028
